Results on one substance are retold here after article PMC12715526.

The target in assay [1] is T1, second motif "GSLSLGVN" of GhAIL6 in the BD vector (Gossypium hirsutum).
T1 sequence: GSLSLGVN
In words: two-hybrid; GAL4 system (Clontech), Y2HGold yeast; GhAIL6 motif in BD (pGBKT7), GhTPL1 in AD (pGADT7); growth on SD/-Leu-Trp and SD/-Leu-Trp-His-Ade.

In assay [2] the target is T2, first motif "FPGHSNCP" of GhAIL6 in the BD vector (Gossypium hirsutum).
T2 sequence: FPGHSNCP
Described as above.

These are yes or no findings as the source states them, for the method shown. For some assays here: A result given as binding can be weak or reduced; the word gives no strength. Tags and fused reporters may be left off the sequences shown.

As for “GhTPL1 in the AD vector (pGADT7) (Gossypium hirsutum)”, the binding entry in assay [1] is recorded as “binds”; in assay [2], “no binding”.
